The text below walks through data of PubChem BioAssay AID493014 (National Center for Advancing Translational Sciences (NCATS), 2011).

In general, AC50 refers to the midpoint of the concentration-response curve, whichever way the signal moves.

The assay can be described thus: qHTS Assay to Find Inhibitors of Chronic Active B-Cell Receptor Signaling. To be noted: ABC-DLBCL IkBa-CBG/CBR reporter, luminescence ratio (green luciferase fused to IkBa over red control in TMD8 lymphoma cells), 4 h. An outline of the steps: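 Compounds up to 46 uM were incubated four hours with TMD8 cells whose green CBG68 luciferase is fused to IkappaBalpha; red CBR luminescence normalised the signal, and concentration-effect curves were fitted to fusion, red and ratio data.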
(qHTS replaces the single test concentration by a dilution series.)

Where [1] appears, read: measured here: CBR red luminescence, cell number.
Where [2] appears, read: measured here: IkBa-CBG green luminescence.

SMILES strings stand for the structures. Some of the results follow. The main result of the screen is listed elsewhere. These columns were measured beside it and carry no call. The list favours compounds with an active or inconclusive main result. The note in brackets gives the kind of curve behind each potency; many fits are weak.

As for `CCCCNC(=O)N(O)C1N(/N=C/c2cccs2)C(=S)SC1(C)C` (configuration not stated), under setting [1], the AC50 is 6.31 µM [rising, full curve].

In the case of `Cc1c(C(=O)Nc2ccc3c(c2)OCO3)oc2ccccc12`, the AC50 under setting [1] is 15.8 µM [falling, partial curve, poor fit].

Regarding `COc1cc(/C=N/NC(=S)NCc2ccco2)cc(OC)c1OC`, under setting [1], the AC50 was 7.31 µM [falling, partial curve, poor fit].

For the compound `CCC(C)(C(=O)NC1CCCCC1)N(Cc1cccs1)C(=O)Cc1cccs1` (configuration not stated), the AC50 under setting [1] was 7.31 µM [falling, partial curve, poor fit].

As to `CCc1nnc(NS(=O)(=O)c2ccc(N/C=C\C(=O)c3ccc4ccccc4c3)cc2)s1`, under setting [2], the half-maximal activity concentration (AC50) is 25.9 µM [rising, single point].

Regarding `c1ccc2c(c1)nc1n2CCS1`, the AC50 under setting [1] is 29.1 µM [rising, partial curve, poor fit].

With `Cc1cc(C)nc(NS(=O)(=O)c2ccc(NS(=O)(=O)c3ccccc3)cc2)n1`, under setting [1], the AC50 was 3.66 µM [rising, single point].

With `O=C(NCCN1CCN(C(=O)c2cccc(Br)c2)CC1)C(=O)Nc1ccc(Br)cc1`, under setting [1], the AC50 was 6.31 µM [falling, partial curve, poor fit].

Take `CCOc1ccc(C(C(=O)NCC2CCCO2)N(C(=O)c2snc(C(N)=O)c2N)c2ccc3c(c2)OCCO3)cc1` (configuration not stated): the AC50 under setting [1] is 14.1 µM [rising, partial curve, poor fit].

With `CC(C)(C)c1cccc(OCCCSc2ncccn2)c1`, the AC50 under setting [1] is 10 µM [rising, partial curve, poor fit].

On to `COC(=O)c1cccc(NC(=O)CSc2nc3cccnc3n2C)c1`, for which the AC50 under setting [1] was 11.2 µM [falling, single point].

Regarding `CN1CCN(C2=NC(=O)/C(=C/c3cn[nH]c3-c3ccccc3)S2)CC1`, the AC50 under setting [1] is 35.5 µM [falling, single point].

In the case of `CC(C)OC(=O)CSc1nnc(CNc2ccc(Cl)cc2)n1Cc1ccccc1`, the AC50 runs as follows: under setting [1], 9.2 µM [falling, partial curve, poor fit]; under setting [2], 25.9 µM [rising, partial curve, poor fit].

In the case of `Cc1cccc(NC(=O)/C=C/c2ccc3c(c2)OCO3)n1`, the AC50 under setting [1] was 6.51 µM [falling, partial curve].

`O=C(O)CCc1nc(-c2ccccc2)no1`: the AC50 under setting [1] was 2.82 µM [rising, full curve].

For `COc1ccccc1Nc1nc(NCc2ccco2)nc(N)c1[N+](=O)[O-]`, the AC50 under setting [1] is 35.5 µM [rising, single point].

As to `Cc1c(C(=O)O)cccc1-c1ccc(/C=N/n2cnnc2)o1`, the AC50 under setting [1] is 17.8 µM [rising, partial curve, poor fit].

For `CC1CN=C(NC(=O)c2cccc([N+](=O)[O-])c2)S1` (configuration not stated), the AC50 under setting [1] is 0.355 µM [rising, partial curve, poor fit].

For `COP(C)(=O)c1c(C)nn(-c2ccccc2)c1C` (configuration not stated), under setting [1], the AC50 is 4.11 µM [rising, partial curve, poor fit].

For the compound `O=C(COc1ccccc1)N/N=C/c1ccc([N+](=O)[O-])o1`, the AC50 under setting [1] is 6.51 µM [rising, single point].

For the compound `COC(=O)C1=C(CSc2nc3ccccc3o2)NC(=O)NC1c1cc(C)ccc1C` (configuration not stated), the half-maximal activity concentration (AC50) under setting [1] is 18.4 µM [falling, partial curve, poor fit].

In the case of `O=C(/C=C/Sc1ccccc1)c1ccccc1`, the AC50 under setting [1] is 11.2 µM [falling, partial curve, poor fit] and the AC50 under setting [2] is 35.5 µM [rising, single point].

`O=C(OCc1cccc([N+](=O)[O-])c1)c1cccnc1Cl`: the AC50 under setting [1] is 3.16 µM [rising, full curve, poor fit].

Take `CCN(CC)c1ccc(NC(=O)COc2ccccc2C#N)cc1S(=O)(=O)Nc1ccc(OC)cc1`: the AC50 under setting [1] is 0.461 µM [falling, full curve, poor fit].

On to `COc1cc2c(cc1NC(=O)CN(C)Cc1cccc(OC)c1OC)oc1ccccc12`, for which, under setting [2], the AC50 is 20.6 µM [rising, single point].

As to `Nc1c(C(=O)N/N=C/c2ccccc2)cnn1-c1ccccc1`, the AC50 under setting [1] was 31.6 µM [falling, single point].

On to `COc1ccc(N/N=C(/C(C)=O)N2CCCc3ccccc32)cc1`, for which, under setting [1], the AC50 was 0.1 µM [falling, full curve, poor fit].

As to `CC(=O)c1c(C)[nH]c(C(=O)OCc2c(F)cccc2Cl)c1C`, the half-maximal activity concentration (AC50) under setting [1] was 35.5 µM [rising, single point].

For `CNC(=O)N/N=C(\N)c1ccccn1`, under setting [1], the AC50 was 15.8 µM [falling, partial curve, poor fit].

Regarding `NS(=O)(=O)c1ccc(CNC(=O)c2cccc(Oc3ccccc3)c2)cc1`, the AC50 under setting [1] is 35.5 µM [falling, single point].

For the compound `COc1ccc(C(CNC(=O)c2cccn2C)N2CCOCC2)cc1` (configuration not stated), under setting [1], the AC50 is 29.1 µM [rising, single point].

For `CN(C)/C=C1\Oc2ccc3ccccc3c2C1=O`, the AC50 under setting [1] was 35.5 µM [falling, single point].

With `CC(=O)Oc1ccc(C(=O)Nc2cc(NC(=O)c3ccc(OC(C)=O)cc3)cc(C(=O)NC(C)(C)C)c2)cc1`, the AC50 under setting [1] was 18.4 µM [falling, single point].

Regarding `CCOC(=O)c1c(N2C(=O)C3C4C=CC(C4)C3C2=O)sc2c1CCC(C)C2` (configuration not stated), the AC50 under setting [1] was 0.184 µM [falling, full curve, poor fit].

As to `CCN(CC)c1ccc(/C=N/NC(=O)Cc2ccc(OC)c(OC)c2)cc1`, under setting [2], the AC50 is 11.2 µM [falling, partial curve, poor fit].

`COc1ccc(NC(=O)c2cccc(N3C(=O)C4C5C=CC(C5)C4C3=O)c2)c(OC)c1` (configuration not stated): the AC50 under setting [1] was 5.01 µM [falling, partial curve].

`Cc1ccc2sc(-c3ccc(NC(=O)CCN4C(=O)c5ccccc5C4=O)cc3)nc2c1`: the AC50 under setting [1] was 0.517 µM [rising, full curve, poor fit].

`Cc1csc(NC(=O)CSc2ccc(-c3ccccc3)nn2)n1`: under setting [1], the AC50 is 3.98 µM [falling, single point].

As to `C[C@H]1CN([C@@H](C)CO)C(=O)Cc2cc(NC(=O)C3CC3)ccc2O[C@H]1CN(C)Cc1ccc(C(=O)O)cc1`, under setting [1], the AC50 was 7.31 µM [rising, partial curve].

As for `CCS(=O)(=O)Nc1ccc2c(c1)N(C(C)=O)c1ccccc1CC2`, under setting [1], the AC50 was 29.1 µM [falling, single point].
